Data published in paper PMC12390684 (Viruses, 2025).

Sequences of proteins named here, by UniProt entry; tags and fusion partners are left off. Residues count along the entry.
UniProt Q9P2K8, 192-1024: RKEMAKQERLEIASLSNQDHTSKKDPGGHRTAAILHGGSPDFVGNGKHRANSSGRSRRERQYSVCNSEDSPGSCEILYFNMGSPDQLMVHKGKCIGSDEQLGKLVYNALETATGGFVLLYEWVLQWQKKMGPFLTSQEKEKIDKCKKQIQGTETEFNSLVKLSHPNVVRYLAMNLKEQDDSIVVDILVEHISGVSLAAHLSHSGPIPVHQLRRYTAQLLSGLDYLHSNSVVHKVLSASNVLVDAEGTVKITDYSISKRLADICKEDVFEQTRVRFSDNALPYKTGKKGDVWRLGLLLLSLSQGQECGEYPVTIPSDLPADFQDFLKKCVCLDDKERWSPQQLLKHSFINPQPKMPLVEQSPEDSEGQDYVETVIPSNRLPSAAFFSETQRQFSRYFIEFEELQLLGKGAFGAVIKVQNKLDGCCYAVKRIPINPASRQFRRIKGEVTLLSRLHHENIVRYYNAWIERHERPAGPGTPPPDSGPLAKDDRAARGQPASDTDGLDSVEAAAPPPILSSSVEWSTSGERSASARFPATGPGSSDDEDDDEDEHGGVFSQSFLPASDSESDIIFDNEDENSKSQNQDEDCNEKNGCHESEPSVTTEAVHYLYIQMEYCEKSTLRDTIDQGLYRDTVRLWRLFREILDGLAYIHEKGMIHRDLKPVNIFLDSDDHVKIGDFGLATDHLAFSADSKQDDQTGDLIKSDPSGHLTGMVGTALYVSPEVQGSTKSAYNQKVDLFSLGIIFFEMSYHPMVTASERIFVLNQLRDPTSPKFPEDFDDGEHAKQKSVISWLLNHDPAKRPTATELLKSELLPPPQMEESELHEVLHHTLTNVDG

target: IN-GCN2 interaction (6xHis-IN / GST-GCN2) (UniProt P04585+Q9P2K8); assay type: binding, HIV-1 IN; human GCN2; settings: screen, single dose 100 µM, single replicate; residual AlphaLISA signal normalized to DMSO control

Question: How did the “IN-GCN2 interaction (%)” value turn out when `COc1cc2c(c(OC)c1OC)-c1ccc(SC)c(=O)cc1[C@@H](N)CC2` [NSC9170] was run?
Answer: 39.60%

Question: Which “IN-GCN2 interaction (%)” value does the source give for `CCOC(=O)NC1CCc2cc(OC)c(OC)c(OC)c2-c2ccc(OC)c(=O)cc21` (stereo not shown) [NSC355637] here?
Answer: 100.90%

Question: For `COc1c(O)cc2c(c1OC)-c1ccc(OC)c(=O)cc1[C@@H](NC(C)=O)CC2` [NSC172946], which “IN-GCN2 interaction (%)” value is on record?
Answer: 105.30%

Question: `COc1cc2c(c(OC)c1OC)-c1ccc(OC)c(=O)cc1[C@@H](N)CC2.O=C(O)C(O)C(O)C(=O)O` [NSC36354] was tested. Which “IN-GCN2 interaction (%)” value did it give?
Answer: 86.27%
